The results in this text go back to paper PMC4723226.

The assay addresses T1, Flag-SMYD1 (not stated (human or mouse cDNA cloned)) (UniProt Q8NB12).
T1 sequence: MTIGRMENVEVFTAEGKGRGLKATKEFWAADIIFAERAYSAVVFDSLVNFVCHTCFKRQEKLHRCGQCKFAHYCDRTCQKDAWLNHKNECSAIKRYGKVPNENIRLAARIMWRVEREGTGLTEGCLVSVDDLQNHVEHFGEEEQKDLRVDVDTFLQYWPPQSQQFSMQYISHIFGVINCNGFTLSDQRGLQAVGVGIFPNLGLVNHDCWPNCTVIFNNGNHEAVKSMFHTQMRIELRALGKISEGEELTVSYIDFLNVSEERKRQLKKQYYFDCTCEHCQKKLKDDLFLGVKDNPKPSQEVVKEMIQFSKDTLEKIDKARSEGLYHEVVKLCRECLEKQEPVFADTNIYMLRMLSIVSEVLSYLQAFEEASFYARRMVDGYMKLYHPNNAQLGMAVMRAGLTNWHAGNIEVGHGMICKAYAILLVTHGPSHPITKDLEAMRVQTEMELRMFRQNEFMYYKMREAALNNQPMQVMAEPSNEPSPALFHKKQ
Briefly: co-IP; 293T cells transfected with Flag-SMYD1 and HA-SRF constructs (whole or deletion mutants); lysates immunoprecipitated with anti-Flag (Fig 4A also anti-HA) antibody; western blot with anti-HA or anti-Flag. For orientation: A western blot detects proteins with antibodies after separation by electrophoresis.

These are yes or no findings as the source states them, for the method shown. In cells and extracts the contact can be indirect. Some binding calls cover weakened binding; strength is not graded here. Tags and fused reporters may be left off the sequences shown.

B1: HA-SRF (protein, UniProt P11831 1-508)
chain: MLPTQAGAAAALGRGSALGGSLNRTPTGRPGGGGGTRGANGGRVPGNGAGLGPGRLEREAAAAAATTPAPTAGALYSGSEGDSESGEEEELGAERRGLKRSLSEMEIGMVVGGPEASAAATGGYGPVSGAVSGAKPGKKTRGRVKIKMEFIDNKLRRYTTFSKRKTGIMKKAYELSTLTGTQVLLLVASETGHVYTFATRKLQPMITSETGKALIQTCLNSPDSPPRSDPTTDQRMSATGFEETDLTYQVSESDSSGETKDTLKPAFTVTNLPGTTSTIQTAPSTSTTMQVSSGPSFPITNYLAPVSASVSPSAVSSANGTVLKSTGSGPVSSGGLMQLPTSFTLMPGGAVAQQVPVQAIQVHQAPQQASPSRDSSTDLTQTSSSGTVTLPATIMTSSVPTTVGGHMMYPSPHAVMYAPTSGLGDGSLTVLNAFSQAPSTMQVSHSQVQEPGGVPQVFLTASSGTVQIPVSAVQLHQMAVIGQQAGSSSNLTELQVVNLDTAHSTKSE
B1: the binding entry is listed as “binds”.
